Results on five molecules are retold here after paper PMC11790905.

Protein sequences, listed by entry. Tags and fused reporters are not part of them. Lines headed by an entry give the natural chain unless they say otherwise; changes in a name come on top.
UniProt P05556: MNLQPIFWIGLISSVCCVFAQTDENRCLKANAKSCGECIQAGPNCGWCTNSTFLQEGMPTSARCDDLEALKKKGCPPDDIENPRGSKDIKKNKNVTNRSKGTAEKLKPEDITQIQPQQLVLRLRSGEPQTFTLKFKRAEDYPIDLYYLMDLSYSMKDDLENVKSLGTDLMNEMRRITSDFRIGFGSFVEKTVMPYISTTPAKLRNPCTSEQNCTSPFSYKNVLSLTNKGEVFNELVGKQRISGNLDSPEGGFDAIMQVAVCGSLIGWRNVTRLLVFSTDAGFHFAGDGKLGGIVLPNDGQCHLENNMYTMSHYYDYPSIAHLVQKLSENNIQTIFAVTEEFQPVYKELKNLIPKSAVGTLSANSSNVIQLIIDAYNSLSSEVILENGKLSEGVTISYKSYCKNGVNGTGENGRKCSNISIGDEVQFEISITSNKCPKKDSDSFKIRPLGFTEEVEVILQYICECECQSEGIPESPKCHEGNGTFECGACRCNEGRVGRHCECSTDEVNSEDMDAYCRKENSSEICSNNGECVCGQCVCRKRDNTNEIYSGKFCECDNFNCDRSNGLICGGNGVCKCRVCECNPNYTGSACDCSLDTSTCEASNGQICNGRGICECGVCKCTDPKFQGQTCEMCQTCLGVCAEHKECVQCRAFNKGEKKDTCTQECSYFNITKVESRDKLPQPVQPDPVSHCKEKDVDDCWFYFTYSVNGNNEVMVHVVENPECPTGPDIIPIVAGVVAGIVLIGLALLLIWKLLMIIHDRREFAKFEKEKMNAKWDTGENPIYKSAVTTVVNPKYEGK
UniProt Q12809: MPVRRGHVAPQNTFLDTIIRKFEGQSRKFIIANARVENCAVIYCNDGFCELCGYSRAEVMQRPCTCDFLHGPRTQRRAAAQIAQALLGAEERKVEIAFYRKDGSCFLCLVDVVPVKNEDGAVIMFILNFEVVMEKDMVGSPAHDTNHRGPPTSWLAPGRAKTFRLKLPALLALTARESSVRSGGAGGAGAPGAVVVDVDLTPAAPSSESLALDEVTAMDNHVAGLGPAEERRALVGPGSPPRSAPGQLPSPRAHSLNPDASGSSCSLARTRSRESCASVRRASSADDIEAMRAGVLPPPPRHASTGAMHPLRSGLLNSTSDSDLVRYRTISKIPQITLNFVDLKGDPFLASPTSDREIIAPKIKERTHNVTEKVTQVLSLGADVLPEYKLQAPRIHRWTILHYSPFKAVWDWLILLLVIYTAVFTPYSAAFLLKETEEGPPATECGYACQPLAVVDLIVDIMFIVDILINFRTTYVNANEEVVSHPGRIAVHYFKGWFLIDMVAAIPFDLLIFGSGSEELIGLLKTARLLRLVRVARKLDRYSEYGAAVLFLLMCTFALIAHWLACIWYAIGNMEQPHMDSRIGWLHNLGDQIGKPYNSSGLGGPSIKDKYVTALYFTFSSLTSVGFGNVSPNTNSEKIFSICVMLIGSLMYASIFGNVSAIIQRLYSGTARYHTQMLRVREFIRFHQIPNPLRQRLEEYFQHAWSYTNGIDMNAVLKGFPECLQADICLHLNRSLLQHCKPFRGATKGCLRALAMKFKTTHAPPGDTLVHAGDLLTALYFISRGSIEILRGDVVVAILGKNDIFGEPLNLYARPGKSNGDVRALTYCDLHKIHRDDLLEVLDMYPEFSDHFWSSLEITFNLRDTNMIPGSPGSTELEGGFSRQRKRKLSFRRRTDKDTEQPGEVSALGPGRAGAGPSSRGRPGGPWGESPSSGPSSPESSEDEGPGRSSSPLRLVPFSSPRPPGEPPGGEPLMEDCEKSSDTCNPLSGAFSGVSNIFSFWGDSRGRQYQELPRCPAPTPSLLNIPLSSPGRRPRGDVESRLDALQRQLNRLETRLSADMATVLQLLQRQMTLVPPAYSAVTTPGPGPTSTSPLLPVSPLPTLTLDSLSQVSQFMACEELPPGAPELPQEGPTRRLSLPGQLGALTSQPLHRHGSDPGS
UniProt Q03135: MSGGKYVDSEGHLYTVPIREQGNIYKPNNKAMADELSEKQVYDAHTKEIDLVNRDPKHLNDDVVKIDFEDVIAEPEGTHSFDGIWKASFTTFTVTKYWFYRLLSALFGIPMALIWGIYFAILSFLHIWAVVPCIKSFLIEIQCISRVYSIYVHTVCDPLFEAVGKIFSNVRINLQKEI

These are yes or no findings as the source states them, for the method shown. Binding seen in cells or lysates may run through a third protein. Some binding calls cover weakened binding; strength is not graded here.

The target in test [1] is β1 subunit of integrin receptors (human (endogenous in PANC-1, MiaPaCa2, BxPC3, HPDE, RLT-PSC, HEK293)) (UniProt P05556). The test is described as follows: condition: only WT HEK 293 cells, which do not express hERG1; co-IP; IP with anti-β1 integrin mAb TS2/16 from total lysate of WT HEK 293 cells, which do not express hERG1 (control).
Test [2] has the same target. The test is described as follows: condition: only cells seeded on BSA (where integrins are not activated); co-IP; IP with anti-β1 integrin mAb TS2/16 from total lysate of HEK-hERG1 cells seeded on BSA (integrins not activated) for 90 min.
The target is the same in test [3]. Put plainly: co-IP; IP with anti-β1 integrin mAb TS2/16 from total lysate (1% NP-40) of HEK-hERG1 cells seeded on Fibronectin for 90 min; blots for hERG1, caveolin-1, flotillin-1; also with 5 mM MβCD for 20 min (less complex).
For test [4] the target is unchanged. The test is described as follows: co-IP; IP with anti-β1 integrin mAb TS2/16 from total lysates of PANC-1, MiaPaCa2 and BxPC3 cells (caveolin-1 and flotillin-1 also in HPDE and RLT-PSC) seeded on Fibronectin for 90 min; PANC-1 also with 5 mM MβCD for 20 min (less complex).
Test [5] has the same target. Put plainly: condition: only lysates of normal HPDE cells and RLT-PSC stellate cells; co-IP; IP with anti-β1 integrin mAb TS2/16 from total lysates of normal HPDE cells and RLT-PSC pancreatic stellate cells after 90 min adhesion; blot for hERG1.
The target of test [6] is hERG1 potassium channel (human ether-à-go-go-related gene 1), endogenous in PDAC cells (human (endogenous in PANC-1, MiaPaCa2, BxPC3)) (UniProt Q12809). The test is described as follows: co-IP; IP with anti-hERG1 mAb from pooled Triton X-100-insoluble (4-6) and -soluble (9-11) sucrose-gradient fractions of PANC-1 cells in standard culture; blot with anti-β1 integrin pAb RM12.

Test [7] concerns the target hERG1 potassium channel stably expressed in HEK293 cells (HEK-hERG1) (human) (UniProt Q12809). Put plainly: co-IP; IP with anti-hERG1 mAb from pooled Triton X-100-insoluble (4-6) and -soluble (9-11) sucrose-gradient fractions of HEK-hERG1 cells seeded on Fibronectin for 90 min; blot with anti-β1 integrin pAb RM12.
Test [8] has the same target. The test is described as follows: co-IP; IP with anti-hERG1 mAb from total lysate of HEK-hERG1 cells seeded on Fibronectin for 90 min, untreated or treated with MβCD, scDb-hERG1-β1 or both; told only by 'All these effects were evident ... in HEK-hERG1 cells'.
Test [9] addresses hERG1 potassium channel (human ether-à-go-go-related gene 1), endogenous in PDAC cells (human (endogenous in PANC-1, MiaPaCa2, BxPC3)) (UniProt Q12809). The test is described as follows: co-IP; IP with anti-hERG1 mAb from total lysate of PANC-1 cells (MiaPaCa2 too by the text) seeded on Fibronectin for 90 min, untreated or treated with MβCD (5 mM), scDb-hERG1-β1 (20 µg/ml) or both (less co-precipitate); blots for PI3K p85 and β1 integrin.

Consider caveolin-1 (from UniProt Q03135 1-178), for which the binding entry is “no binding” in test [1], “no binding” in test [2], “binds” in test [3] and “binds” in test [4].

“hERG1 potassium channel stably expressed in HEK293 cells (HEK-hERG1) (from UniProt Q12809 1-1159)”: the figures for the binding result in test [2] and in test [3] were “no binding” and “binds”, respectively.

On to “hERG1 potassium channel (human ether-à-go-go-related gene 1), endogenous in PDAC cells (from UniProt Q12809 1-1159)”, for which the binding entry in test [5] is “no binding”; in test [4], “binds”.

As to “β1 subunit of integrin receptors (from UniProt P05556 21-798)”, the binding result in test [6], in [7], in [8] and in test [9] was “binds” throughout.

B1: flotillin-1 (protein, UniProt O75955 1-427)
chain: MFFTCGPNEAMVVSGFCRSPPVMVAGGRVFVLPCIQQIQRISLNTLTLNVKSEKVYTRHGVPISVTGIAQVKIQGQNKEMLAAACQMFLGKTEAEIAHIALETLEGHQRAIMAHMTVEEIYKDRQKFSEQVFKVASSDLVNMGISVVSYTLKDIHDDQDYLHSLGKARTAQVQKDARIGEAEAKRDAGIREAKAKQEKVSAQYLSEIEMAKAQRDYELKKAAYDIEVNTRRAQADLAYQLQVAKTKQQIEEQRVQVQVVERAQQVAVQEQEIARREKELEARVRKPAEAERYKLERLAEAEKSQLIMQAEAEAASVRMRGEAEAFAIGARARAEAEQMAKKAEAFQLYQEAAQLDMLLEKLPQVAEEISGPLTSANKITLVSSGSGTMGAAKVTGEVLDILTRLPESVERLTGVSISQVNHKPLRTA
Take B1: the binding result was “no binding” in test [1], “no binding” in test [2], “binds” in [3] and “binds” in test [4].
